Measurements taken from article doi:10.1101/2025.01.25.634861.
No constants are given. Whether binding was seen depends on the method and setting. In cells and extracts the contact can be indirect. Some entries that bind do so weakly or less than the wild type.

The chains behind the UniProt entries cited, without tags or fusion partners.
UniProt Q8TDX7: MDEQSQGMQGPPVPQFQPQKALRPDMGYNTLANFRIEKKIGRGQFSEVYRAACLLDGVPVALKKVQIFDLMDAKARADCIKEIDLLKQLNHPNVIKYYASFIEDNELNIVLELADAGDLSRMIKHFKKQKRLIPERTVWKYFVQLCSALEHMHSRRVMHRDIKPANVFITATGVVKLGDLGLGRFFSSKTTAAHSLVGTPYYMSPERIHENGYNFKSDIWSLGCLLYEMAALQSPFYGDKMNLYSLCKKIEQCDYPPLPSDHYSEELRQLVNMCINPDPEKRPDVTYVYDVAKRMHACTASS

Molecular target: T1, YTHDF3 (human (endogenous in HGC-27)) (UniProt Q7Z739)
T1 sequence: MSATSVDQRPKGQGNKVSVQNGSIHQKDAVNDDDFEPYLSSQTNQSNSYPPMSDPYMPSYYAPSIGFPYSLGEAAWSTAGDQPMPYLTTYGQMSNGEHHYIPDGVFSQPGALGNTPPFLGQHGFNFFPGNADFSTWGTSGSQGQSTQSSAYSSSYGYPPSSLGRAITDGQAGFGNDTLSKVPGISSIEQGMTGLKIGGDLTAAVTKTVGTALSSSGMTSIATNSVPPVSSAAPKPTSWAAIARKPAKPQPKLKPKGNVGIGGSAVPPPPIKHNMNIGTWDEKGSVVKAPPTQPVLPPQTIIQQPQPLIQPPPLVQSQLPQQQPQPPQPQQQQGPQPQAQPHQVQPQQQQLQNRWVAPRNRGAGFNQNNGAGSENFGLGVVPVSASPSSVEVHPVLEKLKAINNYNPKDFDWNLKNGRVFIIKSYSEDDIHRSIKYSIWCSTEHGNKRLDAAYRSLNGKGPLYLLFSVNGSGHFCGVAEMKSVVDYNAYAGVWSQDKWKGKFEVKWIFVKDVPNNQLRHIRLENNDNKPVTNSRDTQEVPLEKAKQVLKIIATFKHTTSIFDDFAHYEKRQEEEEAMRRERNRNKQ
Experiment: co-IP

- binding: binds
Substance: NEK7 (from UniProt Q8TDX7 1-302)
